According to patent US7247641B2, “Compounds, derivatives, compositions, preparation and uses” (MGI GP, Inc., priority 2001, dated 2007):

System: focal cerebral ischemia in male Long-Evans rats
Experiment: Focal cerebral ischemia: right distal MCA cauterization with temporary bilateral CCA occlusion
Assay type: in vivo, rat
Settings: for PaCO2 / PaO2 / pH: arterial blood 30 min after MCA occlusion; for MABP Ischemia: average during occlusion; for MABP Steady State: just prior to occlusion; for relative blood flow in the right parietal cortex during occlusion, % of the baseline: laser Doppler, control 20.8±7.7

O=C1NCCc2c(OCCCCN3CCCCC3)cccc21 [DPQ, 3,4-dihydro-5-[4-(1-piperidinyl)-butoxy]-1(2H)-isoquinolinone]
PaCO2 (5 mg/kg): 38.0 mm Hg | PaO2 (5 mg/kg): 126 ± 20 mm Hg | pH (5 mg/kg): 7.36 | MABP Ischemia (5 mg/kg): 91 ± 12 mm Hg | MABP Steady State (5 mg/kg): 78 ± 5 mm Hg | relative blood flow in the right parietal cortex during occlusion, % of the baseline (5 mg/kg): 18.7±7.4% | PaCO2 (10 mg/kg): 39.3 mm Hg | PaO2 (10 mg/kg): 125 ± 16 mm Hg | pH (10 mg/kg): 7.34 | MABP Ischemia (10 mg/kg): 90 ± 14 mm Hg | MABP Steady State (10 mg/kg): 80 ± 9 mm Hg | relative blood flow in the right parietal cortex during occlusion, % of the baseline (10 mg/kg): 21.4±7.7% | PaCO2 (20 mg/kg): 41.3 mm Hg | PaO2 (20 mg/kg): 122 ± 14 mm Hg | pH (20 mg/kg): 7.35 | MABP Ischemia (20 mg/kg): 91 ± 12 mm Hg | MABP Steady State (20 mg/kg): 79 ± 10 mm Hg | PaCO2 (40 mg/kg): 39.5 mm Hg | PaO2 (40 mg/kg): 137 ± 17 mm Hg | pH (40 mg/kg): 7.33 | MABP Ischemia (40 mg/kg): 88 ± 12 mm Hg | MABP Steady State (40 mg/kg): 78 ± 4 mm Hg | relative blood flow in the right parietal cortex during occlusion, % of the baseline (40 mg/kg): 19.3±11.2%
